From the supplement of paper PMC10849652
The list shows a part of the results.

Protein sequences, listed by entry. Tags and fused reporters are not part of them. Lines headed by an entry give the natural chain unless they say otherwise; changes in a name come on top.
UniProt Q8NBJ7: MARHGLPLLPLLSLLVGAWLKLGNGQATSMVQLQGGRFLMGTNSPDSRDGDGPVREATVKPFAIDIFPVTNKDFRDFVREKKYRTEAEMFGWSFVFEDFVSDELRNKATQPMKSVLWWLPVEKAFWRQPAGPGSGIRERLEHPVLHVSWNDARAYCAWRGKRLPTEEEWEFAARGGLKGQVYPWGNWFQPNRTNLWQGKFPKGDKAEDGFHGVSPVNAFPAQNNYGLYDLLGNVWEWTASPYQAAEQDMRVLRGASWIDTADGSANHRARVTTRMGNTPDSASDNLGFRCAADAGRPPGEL
UniProt Q8IWZ8: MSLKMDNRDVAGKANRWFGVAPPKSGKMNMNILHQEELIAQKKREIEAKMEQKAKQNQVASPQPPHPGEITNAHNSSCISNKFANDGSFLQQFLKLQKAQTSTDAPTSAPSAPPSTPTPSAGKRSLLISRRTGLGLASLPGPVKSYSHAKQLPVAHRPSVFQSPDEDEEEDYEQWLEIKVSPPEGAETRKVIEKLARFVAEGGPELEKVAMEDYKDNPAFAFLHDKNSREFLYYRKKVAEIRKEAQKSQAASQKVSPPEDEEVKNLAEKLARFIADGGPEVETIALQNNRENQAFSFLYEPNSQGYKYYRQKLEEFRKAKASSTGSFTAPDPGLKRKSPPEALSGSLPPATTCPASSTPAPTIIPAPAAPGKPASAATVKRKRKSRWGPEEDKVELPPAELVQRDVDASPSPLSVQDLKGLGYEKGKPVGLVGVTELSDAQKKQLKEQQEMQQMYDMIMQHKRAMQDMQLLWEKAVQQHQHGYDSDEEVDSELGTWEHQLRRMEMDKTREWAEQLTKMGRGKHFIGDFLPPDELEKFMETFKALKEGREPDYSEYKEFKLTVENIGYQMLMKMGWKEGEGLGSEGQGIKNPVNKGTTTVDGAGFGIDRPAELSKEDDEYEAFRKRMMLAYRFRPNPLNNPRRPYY
UniProt Q92804: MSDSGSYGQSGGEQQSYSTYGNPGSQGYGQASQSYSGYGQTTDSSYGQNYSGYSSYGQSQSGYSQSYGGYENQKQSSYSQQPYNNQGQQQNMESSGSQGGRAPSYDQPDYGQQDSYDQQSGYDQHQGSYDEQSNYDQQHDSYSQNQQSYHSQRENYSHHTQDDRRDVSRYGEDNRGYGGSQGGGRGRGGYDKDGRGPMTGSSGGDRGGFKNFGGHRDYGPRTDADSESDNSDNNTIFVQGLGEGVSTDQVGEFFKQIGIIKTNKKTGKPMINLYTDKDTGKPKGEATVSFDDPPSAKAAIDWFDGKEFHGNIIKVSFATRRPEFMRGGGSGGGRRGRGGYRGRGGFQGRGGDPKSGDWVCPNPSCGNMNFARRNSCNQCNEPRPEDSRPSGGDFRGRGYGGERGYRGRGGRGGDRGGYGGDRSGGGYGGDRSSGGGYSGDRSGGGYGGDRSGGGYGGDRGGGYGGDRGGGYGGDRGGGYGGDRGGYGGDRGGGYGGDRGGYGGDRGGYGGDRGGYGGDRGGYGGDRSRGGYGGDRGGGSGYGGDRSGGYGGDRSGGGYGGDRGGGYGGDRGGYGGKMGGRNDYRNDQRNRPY
UniProt Q9ULQ0: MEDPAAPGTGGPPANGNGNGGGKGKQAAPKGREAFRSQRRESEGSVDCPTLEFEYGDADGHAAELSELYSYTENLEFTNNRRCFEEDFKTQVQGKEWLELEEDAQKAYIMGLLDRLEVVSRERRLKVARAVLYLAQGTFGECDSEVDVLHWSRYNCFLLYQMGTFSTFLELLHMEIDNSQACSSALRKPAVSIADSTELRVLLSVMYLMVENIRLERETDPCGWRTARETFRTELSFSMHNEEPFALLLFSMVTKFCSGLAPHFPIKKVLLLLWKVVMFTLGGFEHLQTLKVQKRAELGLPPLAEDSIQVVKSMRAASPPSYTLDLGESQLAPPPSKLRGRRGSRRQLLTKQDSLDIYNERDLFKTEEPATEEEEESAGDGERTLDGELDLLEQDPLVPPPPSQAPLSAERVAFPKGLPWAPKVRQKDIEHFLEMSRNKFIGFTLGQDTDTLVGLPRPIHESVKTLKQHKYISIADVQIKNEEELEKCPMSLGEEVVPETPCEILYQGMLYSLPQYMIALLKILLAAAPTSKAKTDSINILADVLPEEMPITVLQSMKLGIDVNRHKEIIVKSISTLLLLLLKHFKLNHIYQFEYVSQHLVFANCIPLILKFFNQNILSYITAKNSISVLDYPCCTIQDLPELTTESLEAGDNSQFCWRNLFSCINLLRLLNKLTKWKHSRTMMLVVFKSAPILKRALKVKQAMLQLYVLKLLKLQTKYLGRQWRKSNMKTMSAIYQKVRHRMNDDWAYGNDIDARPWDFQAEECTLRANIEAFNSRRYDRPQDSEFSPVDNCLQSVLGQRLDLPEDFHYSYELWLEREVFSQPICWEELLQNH
UniProt P55854, whole entry, looked up: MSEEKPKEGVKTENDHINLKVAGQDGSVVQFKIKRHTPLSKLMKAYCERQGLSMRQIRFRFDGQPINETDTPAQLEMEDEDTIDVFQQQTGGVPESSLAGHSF
UniProt Q8IYB8: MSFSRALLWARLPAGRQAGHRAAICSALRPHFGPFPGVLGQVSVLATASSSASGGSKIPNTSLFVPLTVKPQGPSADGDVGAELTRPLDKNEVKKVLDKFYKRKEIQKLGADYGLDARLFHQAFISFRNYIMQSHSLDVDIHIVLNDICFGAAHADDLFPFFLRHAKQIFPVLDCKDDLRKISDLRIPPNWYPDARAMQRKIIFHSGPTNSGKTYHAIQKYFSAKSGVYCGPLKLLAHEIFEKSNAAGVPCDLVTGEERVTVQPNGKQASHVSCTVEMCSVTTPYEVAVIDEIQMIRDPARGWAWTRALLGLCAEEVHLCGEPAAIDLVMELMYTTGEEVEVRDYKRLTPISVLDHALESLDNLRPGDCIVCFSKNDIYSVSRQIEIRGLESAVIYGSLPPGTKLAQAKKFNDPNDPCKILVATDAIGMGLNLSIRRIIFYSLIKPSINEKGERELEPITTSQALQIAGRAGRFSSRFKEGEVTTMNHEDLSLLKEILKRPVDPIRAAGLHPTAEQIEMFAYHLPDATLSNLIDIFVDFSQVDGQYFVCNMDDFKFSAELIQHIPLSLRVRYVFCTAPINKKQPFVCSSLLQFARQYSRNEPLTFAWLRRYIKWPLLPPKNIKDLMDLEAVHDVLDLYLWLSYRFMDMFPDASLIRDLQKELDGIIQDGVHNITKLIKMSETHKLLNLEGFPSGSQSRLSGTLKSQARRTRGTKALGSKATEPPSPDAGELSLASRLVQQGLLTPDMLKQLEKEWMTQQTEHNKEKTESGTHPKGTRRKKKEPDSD
UniProt P50225: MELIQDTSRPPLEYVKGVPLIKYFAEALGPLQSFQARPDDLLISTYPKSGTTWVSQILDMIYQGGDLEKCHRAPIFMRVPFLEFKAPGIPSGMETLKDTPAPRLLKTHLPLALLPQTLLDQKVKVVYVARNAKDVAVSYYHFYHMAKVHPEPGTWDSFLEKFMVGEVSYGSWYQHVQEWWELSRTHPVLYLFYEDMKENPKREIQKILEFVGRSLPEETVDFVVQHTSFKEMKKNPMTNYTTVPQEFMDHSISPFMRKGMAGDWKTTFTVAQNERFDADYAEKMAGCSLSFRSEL
UniProt Q16514: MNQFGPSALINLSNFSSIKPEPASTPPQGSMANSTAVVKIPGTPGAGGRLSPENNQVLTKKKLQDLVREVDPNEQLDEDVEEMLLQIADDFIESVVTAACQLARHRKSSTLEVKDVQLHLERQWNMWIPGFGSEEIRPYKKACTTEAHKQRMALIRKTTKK
UniProt Q96SI9: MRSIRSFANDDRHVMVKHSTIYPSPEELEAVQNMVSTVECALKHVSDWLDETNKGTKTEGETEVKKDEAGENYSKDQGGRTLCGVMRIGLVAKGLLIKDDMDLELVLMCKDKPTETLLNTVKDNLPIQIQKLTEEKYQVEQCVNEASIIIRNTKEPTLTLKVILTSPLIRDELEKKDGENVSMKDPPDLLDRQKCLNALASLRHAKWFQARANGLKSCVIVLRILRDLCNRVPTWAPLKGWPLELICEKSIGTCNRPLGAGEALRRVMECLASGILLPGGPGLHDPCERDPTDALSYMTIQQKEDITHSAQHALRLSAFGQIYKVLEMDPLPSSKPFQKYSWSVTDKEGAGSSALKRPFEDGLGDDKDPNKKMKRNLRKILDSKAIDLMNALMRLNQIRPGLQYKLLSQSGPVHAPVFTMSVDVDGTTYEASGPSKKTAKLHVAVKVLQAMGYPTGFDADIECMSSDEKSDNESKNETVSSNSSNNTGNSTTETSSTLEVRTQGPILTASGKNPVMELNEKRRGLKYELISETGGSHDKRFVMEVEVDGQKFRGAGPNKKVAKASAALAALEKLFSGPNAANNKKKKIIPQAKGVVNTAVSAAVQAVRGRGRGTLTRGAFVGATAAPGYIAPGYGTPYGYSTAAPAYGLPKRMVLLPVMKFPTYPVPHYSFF
UniProt Q96I99: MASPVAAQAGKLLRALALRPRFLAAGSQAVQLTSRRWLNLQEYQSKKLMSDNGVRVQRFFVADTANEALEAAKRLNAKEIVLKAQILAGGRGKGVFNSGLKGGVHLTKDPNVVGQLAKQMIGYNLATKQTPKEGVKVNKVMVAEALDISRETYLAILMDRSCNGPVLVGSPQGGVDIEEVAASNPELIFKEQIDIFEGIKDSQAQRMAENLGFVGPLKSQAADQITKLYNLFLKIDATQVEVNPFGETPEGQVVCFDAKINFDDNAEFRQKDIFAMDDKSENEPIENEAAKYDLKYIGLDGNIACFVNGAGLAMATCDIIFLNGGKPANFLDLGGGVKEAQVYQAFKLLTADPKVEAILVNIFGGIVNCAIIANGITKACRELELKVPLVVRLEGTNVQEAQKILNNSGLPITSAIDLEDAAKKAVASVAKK
UniProt O43815: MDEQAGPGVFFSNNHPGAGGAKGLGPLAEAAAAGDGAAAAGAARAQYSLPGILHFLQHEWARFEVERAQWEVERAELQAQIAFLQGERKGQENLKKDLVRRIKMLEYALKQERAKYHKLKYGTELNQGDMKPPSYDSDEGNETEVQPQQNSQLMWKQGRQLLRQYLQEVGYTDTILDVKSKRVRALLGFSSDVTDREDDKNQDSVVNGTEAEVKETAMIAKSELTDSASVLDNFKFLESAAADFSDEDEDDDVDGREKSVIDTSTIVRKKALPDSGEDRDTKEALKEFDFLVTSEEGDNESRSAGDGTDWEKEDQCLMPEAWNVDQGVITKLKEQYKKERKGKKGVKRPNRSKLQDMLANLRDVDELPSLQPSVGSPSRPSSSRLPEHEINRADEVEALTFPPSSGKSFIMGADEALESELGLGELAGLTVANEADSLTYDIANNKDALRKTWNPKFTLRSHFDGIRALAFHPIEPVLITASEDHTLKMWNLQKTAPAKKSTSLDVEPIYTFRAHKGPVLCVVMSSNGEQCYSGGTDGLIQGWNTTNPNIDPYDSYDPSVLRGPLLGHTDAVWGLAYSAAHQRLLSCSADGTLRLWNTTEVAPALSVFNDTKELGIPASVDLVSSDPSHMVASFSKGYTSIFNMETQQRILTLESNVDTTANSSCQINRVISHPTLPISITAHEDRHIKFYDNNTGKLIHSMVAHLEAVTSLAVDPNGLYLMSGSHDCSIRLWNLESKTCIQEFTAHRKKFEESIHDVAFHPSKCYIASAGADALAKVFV
UniProt Q5VSL9: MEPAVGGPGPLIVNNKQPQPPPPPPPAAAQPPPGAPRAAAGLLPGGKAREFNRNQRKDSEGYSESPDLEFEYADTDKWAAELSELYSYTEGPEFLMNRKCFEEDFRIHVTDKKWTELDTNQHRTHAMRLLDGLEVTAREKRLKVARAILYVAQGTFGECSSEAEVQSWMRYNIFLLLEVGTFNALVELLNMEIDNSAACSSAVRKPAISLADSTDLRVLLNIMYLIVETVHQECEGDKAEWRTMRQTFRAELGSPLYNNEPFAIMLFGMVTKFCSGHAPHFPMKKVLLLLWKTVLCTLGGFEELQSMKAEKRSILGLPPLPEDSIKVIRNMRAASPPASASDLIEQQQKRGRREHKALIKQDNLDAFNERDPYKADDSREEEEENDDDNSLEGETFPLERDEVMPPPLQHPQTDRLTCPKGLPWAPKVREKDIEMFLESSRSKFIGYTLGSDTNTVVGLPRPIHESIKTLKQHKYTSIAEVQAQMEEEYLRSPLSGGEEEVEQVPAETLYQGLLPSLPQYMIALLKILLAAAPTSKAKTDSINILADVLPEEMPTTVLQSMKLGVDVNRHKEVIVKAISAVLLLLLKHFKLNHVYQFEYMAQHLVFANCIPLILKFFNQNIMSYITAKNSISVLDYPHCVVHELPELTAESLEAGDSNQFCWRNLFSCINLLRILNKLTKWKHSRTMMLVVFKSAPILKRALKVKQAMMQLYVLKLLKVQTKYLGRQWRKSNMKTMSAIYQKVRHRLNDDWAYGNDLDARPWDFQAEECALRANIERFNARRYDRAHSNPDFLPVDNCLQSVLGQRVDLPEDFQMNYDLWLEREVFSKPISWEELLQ
UniProt Q7Z422: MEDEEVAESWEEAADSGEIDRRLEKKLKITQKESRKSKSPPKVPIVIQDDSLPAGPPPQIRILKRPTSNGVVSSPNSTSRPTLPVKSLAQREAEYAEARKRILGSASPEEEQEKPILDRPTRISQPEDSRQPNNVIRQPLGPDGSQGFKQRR

Columns and labels:
Test in all cases: log2 fold change, soluble protein after heating vs DMSO (PISA); higher = thermal stabilisation; K562 lysate, 10 uM; active = over 0.2 and 3.5 SD of the protein, either way, in both replicates (recomputed)
nilotinib = compound: Cc1cn(-c2cc(NC(=O)c3ccc(C)c(Nc4nccc(-c5cccnc5)n4)c3)cc(C(F)(F)F)c2)cn1 [nilotinib]
Procedure, shortened: (§1)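 Dounce homogenisation of K562 pellets in PBS pH 7.4 with 1 mM MgCl2 produced a crude extract, used at 1 mg/mL protein. Exposure to 10 μM compound lasted 30 min, and aliquots were then heated for 3 min across 48°C-58°C, pooled and brought to 0.5% NP-40 at 4°C. The supernatant after 21,000xg for 90 min was quantified by TMTpro 16plex LC-MS/MS with channel sums equalised. Duplicate values are given as log-two fold change in thermal stability relative to solvent controls.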

[1] = compound: Cc1nc(Nc2n[nH]c3c2CN(C(=O)N[C@H](CN(C)C)c2ccccc2)C3(C)C)c2sccc2n1
Procedure, shortened: as §1

dasatinib = compound: Cc1nc(Nc2ncc(C(=O)Nc3c(C)cccc3Cl)s2)cc(N2CCN(CCO)CC2)n1 [dasatinib]
Procedure, shortened: as §1

[2] = compound: Cc1ncc(-c2ccnc(Nc3ccc(S(C)(=O)=O)cc3)n2)n1C(C)C
Procedure, shortened: as §1

[3] = compound: Cn1cc(-c2ccc3c(c2)CCN3C(=O)Cc2cccc(C(F)(F)F)c2)c2c(N)ncnc21
Procedure, shortened: as §1

quisinostat = compound: Cn1cc(CNCC2CCN(c3ncc(C(=O)NO)cn3)CC2)c2ccccc21 [quisinostat]
Procedure, shortened: as §1

tipifarnib = compound: Cn1cncc1[C@@](N)(c1ccc(Cl)cc1)c1ccc2c(c1)c(-c1cccc(Cl)c1)cc(=O)n2C [tipifarnib]
Procedure, shortened: as §1

[4] = compound: NC(=O)Nc1cc(-c2cccc(F)c2)sc1C(=O)N[C@H]1CCCNC1
Procedure, shortened: as §1

[5] = compound: NC(=O)c1cnc(N[C@@H]2CCCC[C@@H]2N)nc1Nc1cccc(-n2nccn2)c1
Procedure, shortened: as §1

[6] = compound: NC1(c2ccc(-c3nc4ccn5c(=O)[nH]nc5c4cc3-c3ccccc3)cc2)CCC1
Procedure, shortened: as §1

[7] = compound: NCC(=O)Nc1ccc(-n2nc(C(F)(F)F)cc2-c2ccc3c(ccc4ccccc43)c2)cc1
Procedure, shortened: as §1

vorinostat = compound: O=C(CCCCCCC(=O)Nc1ccccc1)NO [vorinostat]
Procedure, shortened: as §1

silmitasertib = compound: O=C(O)c1ccc2c(c1)nc(Nc1cccc(Cl)c1)c1ccncc12 [silmitasertib]
Procedure, shortened: as §1

[8] = compound: O=C1NC(=O)C(c2cnc3ccccn23)=C1c1cn2c3c(cc(F)cc13)CN(C(=O)N1CCCCC1)CC2
Procedure, shortened: as §1

entospletinib = compound: c1cn2cc(-c3ccc4cn[nH]c4c3)nc(Nc3ccc(N4CCOCC4)cc3)c2n1 [entospletinib]
Procedure, shortened: as §1

Measured: log2 fold change

SUMF2 (UniProt Q8NBJ7)
inactive: nilotinib 0.031 | [1] -0.038 | dasatinib -0.002 | [2] 0.045 | [3] 0.035 | quisinostat -0.008 | tipifarnib -0.006 | [4] -0.011 | [5] -0.01 | [6] 0.01 | [7] 0.016 | vorinostat 0.033 | silmitasertib -0.028 | [8] -0.023 | entospletinib -0.017

SUGP1 (UniProt Q8IWZ8)
inactive: nilotinib -0.078 | [1] 0.048 | dasatinib 0.015 | [2] 0.014 | [3] 0 | quisinostat -0.028 | tipifarnib -0.056 | [4] -0.024 | [5] -0.009 | [6] 0.011 | [7] -0.001 | vorinostat -0.014 | silmitasertib -0.02 | [8] -0.024 | entospletinib 0.002

SUGT1 isoform 2 (UniProt Q9Y2Z0)
inactive: nilotinib -0.015 | [1] 0.025 | dasatinib 0.045 | [2] -0.052 | [3] -0.002 | quisinostat 0.167 | tipifarnib -0.009 | [4] -0.083 | [5] 0.163 | [6] -0.048 | [7] -0.015 | vorinostat 0.095 | silmitasertib -0.07 | [8] -0.022 | entospletinib 0.013

SYNRG (UniProt Q9UMZ2)
inactive: nilotinib -0.007 | [1] 0.012 | dasatinib 0.009 | [2] 0.036 | [3] 0.001 | quisinostat 0.021 | tipifarnib -0.025 | [4] 0.018 | [5] 0.026 | [6] -0.079 | [7] 0.02 | vorinostat -0.002 | silmitasertib -0.01 | [8] -0.002 | entospletinib -0.014

STT3B (UniProt Q8TCJ2)
inactive: nilotinib -0.003 | [1] 0.009 | dasatinib 0.018 | [2] -0.037 | [3] 0.033 | quisinostat -0.099 | tipifarnib -0.041 | [4] 0 | [5] 0.017 | [6] -0.028 | [7] -0.056 | vorinostat 0.118 | silmitasertib -0.009 | [8] -0.049 | entospletinib 0.01

TAF15 (UniProt Q92804)
inactive: nilotinib -0.144 | [1] 0.025 | dasatinib 0.027 | [2] 0.034 | [3] -0.086 | quisinostat 0.031 | tipifarnib 0.034 | [4] -0.012 | [5] -0.03 | [6] 0.038 | [7] -0.001 | vorinostat 0.1 | silmitasertib -0.08 | [8] 0.01 | entospletinib 0.03

STRADA (UniProt Q7RTN6)
inactive: nilotinib 0.063 | [1] -0.037 | dasatinib -0.017 | [2] -0.01 | [3] -0.127 | quisinostat -0.012 | tipifarnib 0.061 | [4] 0.093 | [5] 0.032 | [6] 0.001 | [7] 0.04 | vorinostat 0.092 | silmitasertib 0.043 | [8] 0.017 | entospletinib 0.015

SUB1 (UniProt P53999)
inactive: nilotinib -0.021 | [1] 0.004 | dasatinib 0.034 | [2] -0.004 | [3] -0.019 | quisinostat 0.107 | tipifarnib 0.031 | [4] -0.017 | [5] -0.009 | [6] -0.005 | [7] -0.002 | vorinostat 0.085 | silmitasertib -0.01 | [8] 0.047 | entospletinib -0.017

STRIP2 (UniProt Q9ULQ0)
inactive: nilotinib 0.007 | [1] 0.09 | dasatinib -0.002 | [2] -0.046 | [3] 0.02 | quisinostat -0.071 | tipifarnib -0.023 | [4] 0.011 | [5] -0.009 | [6] -0.028 | [7] 0.02 | vorinostat -0.185 | silmitasertib 0.02 | [8] 0.002 | entospletinib -0.037

SUMO3 isoform 2 (UniProt P55854)
inactive: nilotinib 0.013 | [1] -0.002 | dasatinib 0.027 | [2] 0.021 | [3] -0.046 | quisinostat 0.049 | tipifarnib 0.073 | [4] -0.041 | [5] -0.044 | [6] 0.024 | [7] 0 | vorinostat 0.162 | silmitasertib -0.087 | [8] 0.024 | entospletinib -0.001

SUPV3L1 (UniProt Q8IYB8)
inactive: nilotinib -0.021 | [1] 0.018 | dasatinib 0.01 | [2] 0.005 | [3] 0.021 | quisinostat -0.024 | tipifarnib -0.01 | [4] 0.01 | [5] -0.018 | [6] -0.049 | [7] 0.009 | vorinostat 0.038 | silmitasertib -0.019 | [8] 0.013 | entospletinib -0.016

Copied from the results shown (five entries):
TAF15 (UniProt Q92804)
inactive: nilotinib -0.144 | [1] 0.025 | dasatinib 0.027 | [2] 0.034 | [3] -0.086 | quisinostat 0.031 | tipifarnib 0.034 | [4] -0.012 | [5] -0.03 | [6] 0.038 | [7] -0.001 | vorinostat 0.1 | silmitasertib -0.08 | [8] 0.01 | entospletinib 0.03

STRADA (UniProt Q7RTN6)
inactive: nilotinib 0.063 | [1] -0.037 | dasatinib -0.017 | [2] -0.01 | [3] -0.127 | quisinostat -0.012 | tipifarnib 0.061 | [4] 0.093 | [5] 0.032 | [6] 0.001 | [7] 0.04 | vorinostat 0.092 | silmitasertib 0.043 | [8] 0.017 | entospletinib 0.015

SUB1 (UniProt P53999)
inactive: nilotinib -0.021 | [1] 0.004 | dasatinib 0.034 | [2] -0.004 | [3] -0.019 | quisinostat 0.107 | tipifarnib 0.031 | [4] -0.017 | [5] -0.009 | [6] -0.005 | [7] -0.002 | vorinostat 0.085 | silmitasertib -0.01 | [8] 0.047 | entospletinib -0.017

STRIP2 (UniProt Q9ULQ0)
inactive: nilotinib 0.007 | [1] 0.09 | dasatinib -0.002 | [2] -0.046 | [3] 0.02 | quisinostat -0.071 | tipifarnib -0.023 | [4] 0.011 | [5] -0.009 | [6] -0.028 | [7] 0.02 | vorinostat -0.185 | silmitasertib 0.02 | [8] 0.002 | entospletinib -0.037

SUMO3 isoform 2 (UniProt P55854)
inactive: nilotinib 0.013 | [1] -0.002 | dasatinib 0.027 | [2] 0.021 | [3] -0.046 | quisinostat 0.049 | tipifarnib 0.073 | [4] -0.041 | [5] -0.044 | [6] 0.024 | [7] 0 | vorinostat 0.162 | silmitasertib -0.087 | [8] 0.024 | entospletinib -0.001

Next part:

SULT1A1 (UniProt P50225)
active: vorinostat -0.273
inactive: nilotinib 0.029 | [1] -0.074 | dasatinib 0.009 | [2] -0.028 | [3] -0.007 | quisinostat -0.006 | tipifarnib -0.043 | [4] 0.047 | [5] 0.007 | [6] -0.021 | [7] 0.077 | silmitasertib 0.036 | [8] -0.021 | entospletinib 0.071

TAF12 (UniProt Q16514)
inactive: nilotinib 0.174 | [1] 0 | dasatinib -0.038 | [2] 0.046 | [3] 0.003 | quisinostat -0.039 | tipifarnib -0.021 | [4] -0.027 | [5] 0.042 | [6] 0.049 | [7] 0.148 | vorinostat -0.172 | silmitasertib 0.046 | [8] 0.01 | entospletinib -0.035

STRBP (UniProt Q96SI9)
inactive: nilotinib -0.03 | [1] 0.01 | dasatinib -0.011 | [2] -0.011 | [3] 0.056 | quisinostat -0.03 | tipifarnib 0.032 | [4] 0.032 | [5] 0.003 | [6] 0.046 | [7] -0.011 | vorinostat -0.016 | silmitasertib 0.002 | [8] -0.018 | entospletinib -0.018

SUCLG2 (UniProt Q96I99)
inactive: nilotinib -0.008 | [1] 0 | dasatinib -0.033 | [2] -0.008 | [3] 0.027 | quisinostat -0.019 | tipifarnib -0.007 | [4] 0.039 | [5] -0.004 | [6] -0.016 | [7] 0.028 | vorinostat 0.001 | silmitasertib -0.011 | [8] 0.012 | entospletinib 0.005

STRN (UniProt O43815)
inactive: nilotinib 0.021 | [1] 0.016 | dasatinib 0.018 | [2] -0.005 | [3] 0.03 | quisinostat 0.011 | tipifarnib -0.006 | [4] 0.007 | [5] -0.003 | [6] 0.013 | [7] 0.037 | vorinostat -0.05 | silmitasertib 0.017 | [8] -0.011 | entospletinib 0.002

STRIP1 (UniProt Q5VSL9)
inactive: nilotinib -0.014 | [1] 0.035 | dasatinib -0.025 | [2] -0.01 | [3] 0.03 | quisinostat 0.006 | tipifarnib -0.015 | [4] 0.007 | [5] 0.03 | [6] 0.012 | [7] 0.007 | vorinostat -0.164 | silmitasertib 0.023 | [8] -0.013 | entospletinib -0.01

SUPT6H (UniProt Q7KZ85)
inactive: nilotinib 0.021 | [1] -0.034 | dasatinib -0.042 | [2] -0.01 | [3] 0.054 | quisinostat -0.047 | tipifarnib -0.016 | [4] 0.035 | [5] 0.022 | [6] 0.054 | [7] 0.023 | vorinostat -0.12 | silmitasertib 0.06 | [8] -0.029 | entospletinib 0.017

TAF6 isoform 3 (UniProt P49848)
inactive: nilotinib 0.027 | [1] 0.02 | dasatinib -0.029 | [2] 0.05 | [3] -0.016 | quisinostat -0.147 | tipifarnib 0.039 | [4] 0.042 | [5] -0.059 | [6] 0.024 | [7] 0.066 | vorinostat -0.075 | silmitasertib 0.078 | [8] -0.002 | entospletinib 0.024

SYP (UniProt P08247)
inactive: nilotinib 0.104 | [1] -0.084 | dasatinib 0.011 | [2] -0.132 | [3] -0.004 | quisinostat 0.056 | tipifarnib -0.084 | [4] 0.071 | [5] 0.017 | [6] -0.066 | [7] 0.024 | vorinostat 0.028 | silmitasertib 0.089 | [8] 0.116 | entospletinib 0.077

SZRD1 (UniProt Q7Z422)
inactive: nilotinib -0.007 | [1] 0.029 | dasatinib 0.032 | [2] 0.04 | [3] -0.009 | quisinostat -0.084 | tipifarnib -0.001 | [4] 0.001 | [5] -0.034 | [6] 0.019 | [7] -0.004 | vorinostat 0.034 | silmitasertib -0.104 | [8] -0.011 | entospletinib 0.002
